# PubChem BioAssay AID1259405 | NCATS | 2018
# Screen: 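Knock-downs that lift recombinant protein yield in hamster ovary cells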 (primary screen)
# System: Chinese hamster CHO-K1 ovary cells with stable secreted eGFP expression
# Reagents: single siRNA against mouse genes, 0.8 pmol siRNA per well (2 µl of 400 nM stock)
# Time to read-out: 3 days
# Detection: 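Per-well intracellular GFP measured by laser scanning cytometry, plus viability from ATP luminescence, each relative to plate median of non-targeting control wells, in %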
# Reading the numbers: GFP, % of control: higher = more GFP per well, higher productivity; viability (ATP), % of control: higher = more viable cells (more ATP)
# Active means: 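a knock-down is called active if GFP reaches 120% or more of non-targeting control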
# The deposit covers about 50,000 reagents; this is an unselected part. Over the whole deposit, about 4,000 (8%) were called active. 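Mouse siRNA library applied to hamster cells; one well for each siRNA.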 A number with no mark means an inactive call. Reagents against one gene are numbered here. No sequences are given here.
Target gene,reagent,"GFP, % of control","viability (ATP), % of control"
Svs3a (GeneID 64335),1,139 (active),74.9
Svs3a (GeneID 64335),2,96.1,74.4
Svs3a (GeneID 64335),3,114,103
Slc15a1 (GeneID 56643),1,38.7,51.7
Slc15a1 (GeneID 56643),2,118,94.8
Slc15a1 (GeneID 56643),3,91.6,82.7
Foxp2 (GeneID 114142),1,31.5,66.5
Foxp2 (GeneID 114142),2,86.9,110
Syt17 (GeneID 110058),1,62.2,59.2
Syt17 (GeneID 110058),2,72.3,89.8
Syt17 (GeneID 110058),3,73.5,87.3
Nkiras1 (GeneID 69721),1,64.5,52.6
Nkiras1 (GeneID 69721),2,59.7,66.2
Nkiras1 (GeneID 69721),3,66.4,72
Trit1 (GeneID 66966),1,208 (active),92.6
Trit1 (GeneID 66966),2,86,93.3
Trit1 (GeneID 66966),3,101,86.9
Trit1 (GeneID 66966),4,89.5,70.2
Trit1 (GeneID 66966),5,76.1,77.5
Trit1 (GeneID 66966),6,95.6,76.2
Akr1c19 (GeneID 432720),1,89.5,65.4
Akr1c19 (GeneID 432720),2,177 (active),51
Akr1c19 (GeneID 432720),3,75.8,81.6
Hmgn2 (GeneID 15331),1,67.7,73.7
Hmgn2 (GeneID 15331),2,46.3,83.2
Hmgn2 (GeneID 15331),3,18.3,20.1
Ccdc61 (GeneID 232933),1,80.9,89.7
Ccdc61 (GeneID 232933),2,87,79.4
Ccdc61 (GeneID 232933),3,103,82.8
Rad18 (GeneID 58186),1,42,31.1
Rad18 (GeneID 58186),2,114,90
Rad18 (GeneID 58186),3,89.6,98
Bcan (GeneID 12032),1,83.8,60.1
Bcan (GeneID 12032),2,102,74.2
Bcan (GeneID 12032),3,59.3,72.4
Pigr (GeneID 18703),1,121 (active),129
Pigr (GeneID 18703),2,67.4,55.2
Pigr (GeneID 18703),3,71.6,44.7
Lima1 (GeneID 65970),1,151 (active),72.3
Lima1 (GeneID 65970),2,110,46.4
Vangl1 (GeneID 229658),1,36.2,46
Vangl1 (GeneID 229658),2,116,77.2
Vangl1 (GeneID 229658),3,93.9,85.8
Fitm1 (GeneID 68680),1,70.9,81
Fitm1 (GeneID 68680),2,58,67
Fitm1 (GeneID 68680),3,54.3,86
Dipk1b (GeneID 56279),1,93.3,66.1
Dipk1b (GeneID 56279),2,92.5,86.4
Dipk1b (GeneID 56279),3,82.3,62.4
Ninl (GeneID 78177),1,61.4,98.4
Ninl (GeneID 78177),2,85.3,69
Accs (GeneID 329470),1,117,85.7
Accs (GeneID 329470),2,82.9,78.8
Accs (GeneID 329470),3,33.1,58
Dusp11 (GeneID 72102),1,74,77.8
Dusp11 (GeneID 72102),2,79.2,47.7
Dusp11 (GeneID 72102),3,98.4,64.3
Cops6 (GeneID 26893),1,104,109
Cops6 (GeneID 26893),2,138 (active),72.1
Cops6 (GeneID 26893),3,111,119
Kit (GeneID 16590),1,81.9,62.5
Anks1 (GeneID 224650),1,93.4,83.4
Anks1 (GeneID 224650),2,73.7,66.1
Anks1 (GeneID 224650),3,48.1,68.7
Ankfy1 (GeneID 11736),1,84.7,83.6
Ankfy1 (GeneID 11736),2,88.8,80.9
Ankfy1 (GeneID 11736),3,81.9,80.1
Tnrc6b (GeneID 213988),1,47.8,62.5
Tnrc6b (GeneID 213988),2,76.2,68.7
Tnrc6b (GeneID 213988),3,86.7,84.6
Sat1 (GeneID 20229),1,82,102
Sat1 (GeneID 20229),2,120 (active),87.6
Sat1 (GeneID 20229),3,84.9,84.8
Gstcd (GeneID 67553),1,62.1,56.4
Gstcd (GeneID 67553),2,81.5,85.4
Gstcd (GeneID 67553),3,81.1,68
Msh2 (GeneID 17685),1,88.6,80
Msh2 (GeneID 17685),2,115,107
Msh2 (GeneID 17685),3,79.7,87.7
Tbck (GeneID 271981),1,131 (active),68.8
Tbck (GeneID 271981),2,52.5,55.2
Tbck (GeneID 271981),3,50.3,82.4
Acot12 (GeneID 74156),1,56.7,66.6
Acot12 (GeneID 74156),2,96.5,82.7
Acot12 (GeneID 74156),3,69,46.8
